# Data as given in PubChem BioAssay AID1904 (GNF, 2009)
# Aim: 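Novel clock parts and modifiers of the cell-autonomous circadian rhythm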 (follow-up of hits)
# System: human U2OS osteosarcoma cells stably expressing a destabilised luciferase driven by the Bmal1 promoter
# Knock-down reagent: siRNA pair against human genes, 12.5 nM (two siRNAs, 0.5 pmol each, per well)
# Duration: about 3 days after transfection, then luminescence recorded for about 4 days
# Read-out: 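Period and amplitude fitted from detrended luminescence traces taken every 2 hours; duplicate wells averaged, compared with the screen mean and grouped into phenotype classes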
# Hit rule: 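Active when retesting with individual siRNAs reproduced the period or amplitude change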
# Calls: active = confirmed by single siRNAs; inactive = not confirmed
# This is not the whole library: the list holds selected reagents. 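Lists only primary-screen hits; phenotype classes come from fitted traces, and the underlying luminescence values are not given.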 The numbers tell different reagents against one gene apart.
gene,reagent no.,clock phenotype class,confirmed with single siRNAs,activity call
SOCS4,1,longer clock period; seen with two independent siRNA pairs for the gene,phenotype reproduced by individual siRNAs,active
SOCS4,2,longer clock period; seen with two independent siRNA pairs for the gene,phenotype reproduced by individual siRNAs,active
GPR17,1,longer clock period; seen with two independent siRNA pairs for the gene,phenotype reproduced by individual siRNAs,active
GPR17,2,longer clock period; seen with two independent siRNA pairs for the gene,phenotype reproduced by individual siRNAs,active
SLC32A1,1,longer clock period; seen with two independent siRNA pairs for the gene,phenotype reproduced by individual siRNAs,active
SLC32A1,2,longer clock period; seen with two independent siRNA pairs for the gene,phenotype reproduced by individual siRNAs,active
GRM5,1,longer clock period; seen with two independent siRNA pairs for the gene,phenotype reproduced by individual siRNAs,active
GRM5,2,longer clock period; seen with two independent siRNA pairs for the gene,phenotype reproduced by individual siRNAs,active
DKFZp547B1713,1,longer clock period; seen with two independent siRNA pairs for the gene,phenotype reproduced by individual siRNAs,active
DKFZp547B1713,2,longer clock period; seen with two independent siRNA pairs for the gene,phenotype reproduced by individual siRNAs,active
RRH,1,longer clock period; seen with two independent siRNA pairs for the gene,phenotype reproduced by individual siRNAs,active
RRH,2,longer clock period; seen with two independent siRNA pairs for the gene,phenotype reproduced by individual siRNAs,active
MGC5309,1,longer clock period; seen with two independent siRNA pairs for the gene,not retested with individual siRNAs,
MGC5309,2,longer clock period; seen with two independent siRNA pairs for the gene,not retested with individual siRNAs,
FLJ39369,1,longer clock period; seen with two independent siRNA pairs for the gene,phenotype reproduced by individual siRNAs,active
FLJ39369,2,longer clock period; seen with two independent siRNA pairs for the gene,phenotype reproduced by individual siRNAs,active
NFE2,1,longer clock period; seen with two independent siRNA pairs for the gene,phenotype reproduced by individual siRNAs,active
NFE2,2,longer clock period; seen with two independent siRNA pairs for the gene,phenotype reproduced by individual siRNAs,active
HOMER3,1,longer clock period; seen with two independent siRNA pairs for the gene,phenotype reproduced by individual siRNAs,active
HOMER3,2,longer clock period; seen with two independent siRNA pairs for the gene,phenotype reproduced by individual siRNAs,active
CES1,1,shorter clock period; seen with one siRNA pair in duplicate wells,phenotype not reproduced by individual siRNAs,inconclusive
CES1,2,shorter clock period; seen with one siRNA pair in duplicate wells,phenotype not reproduced by individual siRNAs,inconclusive
PEF,1,longer clock period; seen with two independent siRNA pairs for the gene,phenotype reproduced by individual siRNAs,active
PEF,2,longer clock period; seen with two independent siRNA pairs for the gene,phenotype reproduced by individual siRNAs,active
RBX1,1,longer clock period; seen with two independent siRNA pairs for the gene,phenotype reproduced by individual siRNAs,active
RBX1,2,longer clock period; seen with two independent siRNA pairs for the gene,phenotype reproduced by individual siRNAs,active
LIMK1,1,longer clock period; seen with two independent siRNA pairs for the gene,phenotype reproduced by individual siRNAs,active
LIMK1,2,longer clock period; seen with two independent siRNA pairs for the gene,phenotype reproduced by individual siRNAs,active
SEC13L1,1,longer clock period; seen with two independent siRNA pairs for the gene,phenotype reproduced by individual siRNAs,active
SH3GL2,1,shorter clock period; seen with one siRNA pair in duplicate wells,phenotype reproduced by individual siRNAs,active
SH3GL2,2,shorter clock period; seen with one siRNA pair in duplicate wells,phenotype reproduced by individual siRNAs,active
PTK2,1,longer clock period; seen with two independent siRNA pairs for the gene,phenotype reproduced by individual siRNAs,active
PTK2,2,longer clock period; seen with two independent siRNA pairs for the gene,phenotype reproduced by individual siRNAs,active
CDK9,1,longer clock period; seen with two independent siRNA pairs for the gene,phenotype reproduced by individual siRNAs,active
CDK9,2,longer clock period; seen with two independent siRNA pairs for the gene,phenotype reproduced by individual siRNAs,active
CASC1,1,shorter clock period; seen with two independent siRNA pairs for the gene,phenotype reproduced by individual siRNAs,active
CASC1,2,shorter clock period; seen with two independent siRNA pairs for the gene,phenotype reproduced by individual siRNAs,active
GUCY2C,1,shorter clock period; seen with one siRNA pair in duplicate wells,phenotype reproduced by individual siRNAs,active
GUCY2C,2,shorter clock period; seen with one siRNA pair in duplicate wells,phenotype reproduced by individual siRNAs,active
RNP,1,higher rhythm amplitude; seen with one siRNA pair in duplicate wells,phenotype reproduced by individual siRNAs,active
RNP,2,higher rhythm amplitude; seen with one siRNA pair in duplicate wells,phenotype reproduced by individual siRNAs,active
B4GALT2,1,shorter clock period; seen with two independent siRNA pairs for the gene,phenotype reproduced by individual siRNAs,active
FOXA3,1,longer clock period; seen with two independent siRNA pairs for the gene,phenotype reproduced by individual siRNAs,active
FOXA3,2,longer clock period; seen with two independent siRNA pairs for the gene,phenotype reproduced by individual siRNAs,active
FHIT,1,higher rhythm amplitude; seen with one siRNA pair in duplicate wells,phenotype reproduced by individual siRNAs,active
FHIT,2,higher rhythm amplitude; seen with one siRNA pair in duplicate wells,phenotype reproduced by individual siRNAs,active
ZNF211,1,higher rhythm amplitude; seen with one siRNA pair in duplicate wells,phenotype not reproduced by individual siRNAs,inconclusive
COPS2,1,shorter clock period; seen with one siRNA pair in duplicate wells,phenotype not reproduced by individual siRNAs,inconclusive
COPS2,2,shorter clock period; seen with one siRNA pair in duplicate wells,phenotype not reproduced by individual siRNAs,inconclusive
BLNK,1,higher rhythm amplitude; seen with one siRNA pair in duplicate wells,phenotype reproduced by individual siRNAs,active
BLNK,2,higher rhythm amplitude; seen with one siRNA pair in duplicate wells,phenotype reproduced by individual siRNAs,active

14 consecutive entries already listed, for reference:
gene,reagent no.,clock phenotype class,confirmed with single siRNAs,activity call
GRM5,2,longer clock period; seen with two independent siRNA pairs for the gene,phenotype reproduced by individual siRNAs,active
DKFZp547B1713,1,longer clock period; seen with two independent siRNA pairs for the gene,phenotype reproduced by individual siRNAs,active
DKFZp547B1713,2,longer clock period; seen with two independent siRNA pairs for the gene,phenotype reproduced by individual siRNAs,active
RRH,1,longer clock period; seen with two independent siRNA pairs for the gene,phenotype reproduced by individual siRNAs,active
RRH,2,longer clock period; seen with two independent siRNA pairs for the gene,phenotype reproduced by individual siRNAs,active
MGC5309,1,longer clock period; seen with two independent siRNA pairs for the gene,not retested with individual siRNAs,
MGC5309,2,longer clock period; seen with two independent siRNA pairs for the gene,not retested with individual siRNAs,
FLJ39369,1,longer clock period; seen with two independent siRNA pairs for the gene,phenotype reproduced by individual siRNAs,active
FLJ39369,2,longer clock period; seen with two independent siRNA pairs for the gene,phenotype reproduced by individual siRNAs,active
NFE2,1,longer clock period; seen with two independent siRNA pairs for the gene,phenotype reproduced by individual siRNAs,active
NFE2,2,longer clock period; seen with two independent siRNA pairs for the gene,phenotype reproduced by individual siRNAs,active
HOMER3,1,longer clock period; seen with two independent siRNA pairs for the gene,phenotype reproduced by individual siRNAs,active
HOMER3,2,longer clock period; seen with two independent siRNA pairs for the gene,phenotype reproduced by individual siRNAs,active
CES1,1,shorter clock period; seen with one siRNA pair in duplicate wells,phenotype not reproduced by individual siRNAs,inconclusive

More entries:
gene,reagent no.,clock phenotype class,confirmed with single siRNAs,activity call
SLICK,1,longer clock period; seen with two independent siRNA pairs for the gene,phenotype reproduced by individual siRNAs,active
SLICK,2,longer clock period; seen with two independent siRNA pairs for the gene,phenotype reproduced by individual siRNAs,active
FKBP11,1,higher rhythm amplitude; seen with one siRNA pair in duplicate wells,phenotype reproduced by individual siRNAs,active
FKBP11,2,higher rhythm amplitude; seen with one siRNA pair in duplicate wells,phenotype reproduced by individual siRNAs,active
IKBKB,1,longer clock period; seen with two independent siRNA pairs for the gene,phenotype reproduced by individual siRNAs,active
IKBKB,2,longer clock period; seen with two independent siRNA pairs for the gene,phenotype reproduced by individual siRNAs,active
COPE,1,shorter clock period; seen with two independent siRNA pairs for the gene,phenotype reproduced by individual siRNAs,active
SPRR1B,1,shorter clock period; seen with one siRNA pair in duplicate wells,phenotype reproduced by individual siRNAs,active
SPRR1B,2,shorter clock period; seen with one siRNA pair in duplicate wells,phenotype reproduced by individual siRNAs,active
FKSG2,1,longer clock period; seen with two independent siRNA pairs for the gene,phenotype reproduced by individual siRNAs,active
FKSG2,2,longer clock period; seen with two independent siRNA pairs for the gene,phenotype reproduced by individual siRNAs,active
ABCC3,1,longer clock period; seen with two independent siRNA pairs for the gene,phenotype reproduced by individual siRNAs,active
ABCC3,2,longer clock period; seen with two independent siRNA pairs for the gene,phenotype reproduced by individual siRNAs,active
YT521,1,longer clock period; seen with two independent siRNA pairs for the gene,phenotype reproduced by individual siRNAs,active
YT521,2,longer clock period; seen with two independent siRNA pairs for the gene,phenotype reproduced by individual siRNAs,active
MFNG,1,longer clock period; seen with two independent siRNA pairs for the gene,phenotype reproduced by individual siRNAs,active
MFNG,2,longer clock period; seen with two independent siRNA pairs for the gene,phenotype reproduced by individual siRNAs,active
KCNJ1,1,longer clock period; seen with two independent siRNA pairs for the gene,phenotype reproduced by individual siRNAs,active
KCNJ1,2,longer clock period; seen with two independent siRNA pairs for the gene,phenotype reproduced by individual siRNAs,active
MRPL18,1,longer clock period; seen with two independent siRNA pairs for the gene,phenotype not reproduced by individual siRNAs,inconclusive
MRPL18,2,longer clock period; seen with two independent siRNA pairs for the gene,phenotype not reproduced by individual siRNAs,inconclusive
CNNM4,1,shorter clock period; seen with two independent siRNA pairs for the gene,phenotype reproduced by individual siRNAs,active
CNNM4,2,shorter clock period; seen with two independent siRNA pairs for the gene,phenotype reproduced by individual siRNAs,active
SPR,1,higher rhythm amplitude; seen with one siRNA pair in duplicate wells,not retested with individual siRNAs,
SPR,2,higher rhythm amplitude; seen with one siRNA pair in duplicate wells,not retested with individual siRNAs,
CCT5,1,shorter clock period; seen with two independent siRNA pairs for the gene,phenotype reproduced by individual siRNAs,active
CCT5,2,shorter clock period; seen with two independent siRNA pairs for the gene,phenotype reproduced by individual siRNAs,active
TWIST2,1,longer clock period; seen with two independent siRNA pairs for the gene,phenotype not reproduced by individual siRNAs,inconclusive
TWIST2,2,longer clock period; seen with two independent siRNA pairs for the gene,phenotype not reproduced by individual siRNAs,inconclusive
IFNK,1,longer clock period; seen with two independent siRNA pairs for the gene,phenotype reproduced by individual siRNAs,active
IFNK,2,longer clock period; seen with two independent siRNA pairs for the gene,phenotype reproduced by individual siRNAs,active
POLR2B,1,longer clock period; seen with two independent siRNA pairs for the gene,phenotype reproduced by individual siRNAs,active
POLR2B,2,longer clock period; seen with two independent siRNA pairs for the gene,phenotype reproduced by individual siRNAs,active
